Experimental data from publication PMC4408008.
Results are given in words; binding and its absence hold for the method and conditions named. Binding seen in cells or lysates may run through a third protein. Some entries that bind do so weakly or less than the wild type. Where a sequence is shown, tags or fusion partners need not be part of it.

The chains behind the UniProt entries cited, without tags or fusion partners.
UniProt Q12888: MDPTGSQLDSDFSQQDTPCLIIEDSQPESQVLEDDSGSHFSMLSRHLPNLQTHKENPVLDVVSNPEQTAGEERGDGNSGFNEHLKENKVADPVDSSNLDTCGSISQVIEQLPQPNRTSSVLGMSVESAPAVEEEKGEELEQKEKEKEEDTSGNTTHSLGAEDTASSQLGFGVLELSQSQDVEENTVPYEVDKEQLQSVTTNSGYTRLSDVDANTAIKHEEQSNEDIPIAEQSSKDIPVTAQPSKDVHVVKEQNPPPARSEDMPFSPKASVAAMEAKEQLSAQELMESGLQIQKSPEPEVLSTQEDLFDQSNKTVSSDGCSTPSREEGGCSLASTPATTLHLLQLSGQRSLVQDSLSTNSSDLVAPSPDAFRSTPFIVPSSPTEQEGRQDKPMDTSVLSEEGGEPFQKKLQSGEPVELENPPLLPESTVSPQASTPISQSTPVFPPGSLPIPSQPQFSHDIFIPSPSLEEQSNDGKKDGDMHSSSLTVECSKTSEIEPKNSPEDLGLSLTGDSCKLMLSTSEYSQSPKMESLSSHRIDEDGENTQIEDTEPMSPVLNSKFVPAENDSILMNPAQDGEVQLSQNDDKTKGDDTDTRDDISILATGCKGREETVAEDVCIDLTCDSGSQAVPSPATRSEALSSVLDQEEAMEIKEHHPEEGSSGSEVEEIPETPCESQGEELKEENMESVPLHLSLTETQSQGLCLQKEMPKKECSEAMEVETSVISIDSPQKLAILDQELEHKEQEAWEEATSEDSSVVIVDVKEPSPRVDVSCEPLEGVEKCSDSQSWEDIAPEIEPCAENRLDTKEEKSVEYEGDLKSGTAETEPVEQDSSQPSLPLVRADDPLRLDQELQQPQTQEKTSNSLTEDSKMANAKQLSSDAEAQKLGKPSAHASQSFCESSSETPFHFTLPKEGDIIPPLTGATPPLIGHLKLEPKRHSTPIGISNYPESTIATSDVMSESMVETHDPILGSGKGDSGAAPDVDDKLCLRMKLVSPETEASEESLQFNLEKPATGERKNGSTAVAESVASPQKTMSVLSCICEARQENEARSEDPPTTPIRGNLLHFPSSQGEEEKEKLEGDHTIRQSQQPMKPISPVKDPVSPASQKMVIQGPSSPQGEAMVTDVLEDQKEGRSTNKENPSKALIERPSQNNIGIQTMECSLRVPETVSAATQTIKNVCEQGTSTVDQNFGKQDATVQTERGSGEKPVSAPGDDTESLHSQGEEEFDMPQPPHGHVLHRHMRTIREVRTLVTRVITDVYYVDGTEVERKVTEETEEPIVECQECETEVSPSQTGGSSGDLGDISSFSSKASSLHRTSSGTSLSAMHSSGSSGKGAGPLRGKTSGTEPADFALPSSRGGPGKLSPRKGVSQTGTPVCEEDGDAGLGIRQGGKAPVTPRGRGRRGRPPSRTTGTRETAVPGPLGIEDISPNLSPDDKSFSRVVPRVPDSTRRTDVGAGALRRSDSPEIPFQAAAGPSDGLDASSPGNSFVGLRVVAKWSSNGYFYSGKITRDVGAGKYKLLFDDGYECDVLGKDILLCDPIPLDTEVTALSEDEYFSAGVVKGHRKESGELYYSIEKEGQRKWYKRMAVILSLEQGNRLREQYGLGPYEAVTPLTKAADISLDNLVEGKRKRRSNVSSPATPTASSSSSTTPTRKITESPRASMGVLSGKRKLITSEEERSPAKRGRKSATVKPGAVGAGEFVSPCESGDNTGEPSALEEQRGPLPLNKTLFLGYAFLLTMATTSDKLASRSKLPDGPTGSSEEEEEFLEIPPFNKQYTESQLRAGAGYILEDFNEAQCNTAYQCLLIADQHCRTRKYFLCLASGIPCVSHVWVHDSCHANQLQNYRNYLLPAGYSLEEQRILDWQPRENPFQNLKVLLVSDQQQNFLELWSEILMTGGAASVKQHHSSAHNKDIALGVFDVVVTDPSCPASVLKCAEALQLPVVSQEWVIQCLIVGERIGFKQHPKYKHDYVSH

Biological target: p53-binding protein 1 (53BP1), endogenous (human (endogenous in HEK293T)) (UniProt Q12888)
Assay: co-IP; FLAG-tagged WT-KAP1 or 4KR in KAP1 depleted HEK293T cells, harvested 1 hour following 10Gy-IR (with or without IR), anti-53BP1 immunoprecipitation, immunoblotting

B1: FLAG-tagged KAP1 4KR mutant (protein, UniProt Q13263 1-835)
chain: MAASAAAASAAAASAASGSPGPGEGSAGGEKRSTAPSAAASASASAAASSPAGGGAEALELLEHCGVCRERLRPEREPRLLPCLHSACSACLGPAAPAAANSSGDGGAAGDGTVVDCPVCKQQCFSKDIVENYFMRDSGSKAATDAQDANQCCTSCEDNAPATSYCVECSEPLCETCVEAHQRVKYTKDHTVRSTGPAKSRDGERTVYCNVHKHEPLVLFCESCDTLTCRDCQLNAHKDHQYQFLEDAVRNQRKLLASLVKRLGDRHATLQKSTKEVRSSIRQVSDVQKRVQVDVKMAILQIMKELNKRGRVLVNDAQKVTEGQQERLERQHWTMTKIQKHQEHILRFASWALESDNNTALLLSKKLIYFQLHRALRMIVDPVEPHGEMKFQWDLNAWTKSAEAFGKIVAERPGTNSTGPAPMAPPRAPGPLSKQGSGSSQPMEVQEGYGFGSGDDPYSSAEPHVSGVRRSRSGEGEVSGLMRKVPRVSLERLDLDLTADSQPPVFKVFPGSTTEDYNLIVIERGAAAAATGQPGTAPAGTPGAPPLAGMAIVKEEETEAAIGAPPTATEGPETKPVLMALAEGPGAEGPRLASPSGSTSSGLEVVAPEGTSAPGGGPGTLDDSATICRVCQKPGDLVMCNQCEFCFHLDCHLPALQDVPGEEWSCSLCHVLPDLKEEDGSLSLDGADSTGVVAKLSPANQRKCERVLLALFCHEPCRPLHQLATDSTFSLDQPGGTLDLTLIRARLQEKLSPPYSSPQEFAQDVGRMFRQFNKLTEDKADVQSIIGLQRFFETRMNEAFGDTKFSAVLVEPPPMSLPGAGLSSQELSGGPGDGP
B1 was tested. Which binding did it give?
Its binding is “binds”.
